Source: paper PMC7463958
These are yes or no findings as the source states them, for the method shown. A result given as binding can be weak or reduced; the word gives no strength.

B1: PIASy cDNA clone isolated from the human ovary cDNA library (pJG4-5/B42-cDNA insert) (domain or fragment, UniProt Q8N2W9 415-510)
chain: CSPQGAILVLGPSDANGLLPAPSVNGSGALGSTGGGGPVGSMENGKPGADVVDLTLDSSSSSEDEEEEEEEEEDEDEEGPRPKRRCPFQKGLVPAC
B2: B42-human protein inhibitor of activated STAT Y (PIASy), full length (1-510) (protein, UniProt Q8N2W9 1-510)
chain: MAAELVEAKNMVMSFRVSDLQMLLGFVGRSKSGLKHELVTRALQLVQFDCSPELFKKIKELYETRYAKKNSEPAPQPHRPLDPLTMHSTYDRAGAVPRTPLAGPNIDYPVLYGKYLNGLGRLPAKTLKPEVRLVKLPFFNMLDELLKPTELVPQNNEKLQESPCIFALTPRQVELIRNSRELQPGVKAVQVVLRICYSDTSCPQEDQYPPNIAVKVNHSYCSVPGYYPSNKPGVEPKRPCRPINLTHLMYLSSATNRITVTWGNYGKSYSVALYLVRQLTSSELLQRLKTIGVKHPELCKALVKEKLRLDPDSEIATTGVRVSLICPLVKMRLSVPCRAETCAHLQCFDAVFYLQMNEKKPTWMCPVCDKPAPYDQLIIDGLLSKILSECEDADEIEYLVDGSWCPIRAEKERSCSPQGAILVLGPSDANGLLPAPSVNGSGALGSTGGGGPVGSMENGKPGADVVDLTLDSSSSSEDEEEEEEEEEDEDEEGPRPKRRCPFQKGLVPAC

Key:
[1] = molecular target: pGilda/LexA-human Msx1 fusion protein, Msx1 (1-297) (human); test: two-hybrid; screen of a human ovary cDNA library (B42 fusions) with LexA-human Msx1 as bait; 4.5 x 10^6 transformants; selection on Ura-, His-, Trp-, Leu- medium, galactose dependency
[2] = molecular target: pGilda/LexA-human Msx1 fusion protein, Msx1 (1-297) (human); test: two-hybrid; directed test in EGY48 yeast: LexA-Msx1 constructs with B42-PIASy constructs; growth on medium lacking leucine at 30 °C and β-galactosidase (X-gal, ONPG)
[3] = molecular target: LexA-Msx1 homeodomain (161-225aa), Arg161-Gln225 (human); test: as above

| Binder | binding [1] | binding [2] | binding [3] |
| --- | --- | --- | --- |
| B1 | binds |  |  |
| B2 |  | binds | binds |
